Measured values reported in article PMC7862700.
The list shows a part of the results, in another mix than the full data. At the low end of the ranking the order means little.

Chains of the proteins cited; added tags and fusions are not shown. Lines headed by an entry give the natural chain unless they say otherwise; changes in a name come on top.
UniProt Q01892: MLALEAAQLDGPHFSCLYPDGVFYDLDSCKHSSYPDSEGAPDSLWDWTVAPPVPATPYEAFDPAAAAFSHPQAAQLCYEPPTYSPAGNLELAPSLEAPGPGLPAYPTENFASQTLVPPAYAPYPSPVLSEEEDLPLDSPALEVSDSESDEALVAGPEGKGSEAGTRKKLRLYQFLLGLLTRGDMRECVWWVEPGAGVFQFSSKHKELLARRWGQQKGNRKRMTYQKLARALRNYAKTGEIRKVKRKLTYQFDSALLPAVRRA
UniProt P41161: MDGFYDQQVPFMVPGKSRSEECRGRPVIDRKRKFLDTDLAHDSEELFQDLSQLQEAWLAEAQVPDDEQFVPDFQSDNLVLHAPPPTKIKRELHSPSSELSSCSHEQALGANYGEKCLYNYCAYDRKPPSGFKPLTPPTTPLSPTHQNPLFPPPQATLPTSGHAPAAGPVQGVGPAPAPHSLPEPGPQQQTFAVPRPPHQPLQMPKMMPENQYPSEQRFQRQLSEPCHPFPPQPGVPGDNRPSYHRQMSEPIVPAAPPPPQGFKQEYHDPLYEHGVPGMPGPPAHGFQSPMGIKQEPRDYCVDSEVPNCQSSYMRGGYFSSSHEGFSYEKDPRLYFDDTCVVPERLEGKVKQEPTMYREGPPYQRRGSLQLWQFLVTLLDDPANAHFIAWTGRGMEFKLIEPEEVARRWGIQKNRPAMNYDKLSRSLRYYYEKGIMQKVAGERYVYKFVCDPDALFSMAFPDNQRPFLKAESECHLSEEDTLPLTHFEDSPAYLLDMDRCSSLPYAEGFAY
UniProt Q99607: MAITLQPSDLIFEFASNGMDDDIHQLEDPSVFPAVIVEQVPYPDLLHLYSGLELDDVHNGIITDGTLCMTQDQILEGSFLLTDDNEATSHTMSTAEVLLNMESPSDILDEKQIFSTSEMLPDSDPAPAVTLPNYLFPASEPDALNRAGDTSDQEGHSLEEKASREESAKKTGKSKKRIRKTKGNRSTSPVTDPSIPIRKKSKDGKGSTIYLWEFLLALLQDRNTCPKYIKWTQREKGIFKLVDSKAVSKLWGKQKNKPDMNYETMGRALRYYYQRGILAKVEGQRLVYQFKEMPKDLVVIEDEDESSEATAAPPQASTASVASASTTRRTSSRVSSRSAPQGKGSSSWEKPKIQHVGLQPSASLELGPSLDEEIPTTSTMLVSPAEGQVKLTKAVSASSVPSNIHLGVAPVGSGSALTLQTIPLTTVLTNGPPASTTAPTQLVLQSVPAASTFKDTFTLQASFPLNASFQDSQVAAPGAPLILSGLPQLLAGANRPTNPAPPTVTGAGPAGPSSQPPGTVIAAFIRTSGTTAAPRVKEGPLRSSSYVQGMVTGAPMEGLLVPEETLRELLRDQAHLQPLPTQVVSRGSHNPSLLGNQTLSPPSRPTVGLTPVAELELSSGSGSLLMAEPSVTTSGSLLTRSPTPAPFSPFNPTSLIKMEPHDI

Target: T1, EHF (UniProt Q9NZC4)
T1 sequence: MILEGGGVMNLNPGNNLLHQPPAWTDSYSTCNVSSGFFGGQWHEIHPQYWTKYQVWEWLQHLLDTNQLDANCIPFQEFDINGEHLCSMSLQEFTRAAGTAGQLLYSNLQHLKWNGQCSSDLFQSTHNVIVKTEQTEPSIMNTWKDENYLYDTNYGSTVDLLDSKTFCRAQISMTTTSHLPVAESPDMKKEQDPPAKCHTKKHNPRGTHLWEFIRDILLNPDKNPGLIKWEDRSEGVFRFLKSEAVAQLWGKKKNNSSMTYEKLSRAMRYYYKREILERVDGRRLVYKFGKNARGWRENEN
Experiment: DAPPL (digital affinity profiling via proximity ligation, sequencing)
Conditions: 10 mM Tris-HCl pH 7.5, 50 mM NaCl, 1 mM DTT, 4% glycerol, room temperature, 30 min; GST-TFs on glutathione beads, 16-mer random dsDNA library, 0.1% …; high values mean tight binding; double strand, one strand shown; scale: fold enrichment (6-mer frequency, TF over GST control)

Row | Sequence | binding signal
1 | CGCTAA | 0.937
2 | CCTGGC | 1.04
3 | CAAGCT | 0.962
4 | ATCGTT | 1
5 | TGGCTG | 1.23
6 | TATGCA | 1.12
7 | GTTATG | 1.2
8 | CGTTTG | 0.943

Target: SPIB (UniProt Q01892)
Experiment: as above
Conditions: 10 mM Tris-HCl pH 7.5, 50 mM NaCl, 1 mM DTT, 4% glycerol, room temperature, 30 min; GST-TFs on glutathione beads, 16-mer random dsDNA library, 0.1% …; high values mean tight binding; double strand, one strand shown; scale: fold enrichment (6-mer frequency, TF over GST control)

Row | Sequence | binding signal
9 | TATGTG | 1.05
10 | CTTCGA | 1.31
11 | GACATT | 1.16
12 | CGCTAA | 0.953
13 | ATCGTT | 0.994
14 | TGGCTG | 1.01
15 | AGCTAG | 0.997
16 | TATGCA | 1.25
17 | AAACTG | 1.1
18 | GCCCCC | 0.974
19 | TTCTGA | 1.32

Target: ETV5 (UniProt P41161)
Experiment: as above
Conditions: 10 mM Tris-HCl pH 7.5, 50 mM NaCl, 1 mM DTT, 4% glycerol, room temperature, 30 min; GST-TFs on glutathione beads, 16-mer random dsDNA library, 0.1% …; high values mean tight binding; double strand, one strand shown; scale: fold enrichment (6-mer frequency, TF over GST control)

Row | Sequence | binding signal
20 | AACTTT | 1.19
21 | CATTTT | 1.23
22 | AACTAC | 1.38
23 | TAGATG | 1.22
24 | AAAGTT | 1.16
25 | CATTGT | 1.19
26 | AAAGCA | 1.06
27 | TATGTG | 1.13
28 | CCTTAT | 1.41
29 | TATAAT | 1.17
30 | CTTCGA | 1.4
31 | GACATT | 1.17
32 | ACGCCT | 1.2
33 | TGCTCG | 1.31
34 | CGCTAA | 0.892
35 | GCTTCC | 3.97
36 | AACTGG | 1.21
37 | CCTGGC | 0.933
38 | GAAACT | 1.28
39 | TGTTTA | 1.19

Row | Sequence | binding signal
40 | CAAGCT | 0.954
41 | ACTACG | 1.27
42 | ATCGTT | 1
43 | TGGCTG | 1.08
44 | AGTAAT | 1.12
45 | TTGACT | 1.13
46 | CTGATT | 1.25
47 | AGCTAG | 0.971
48 | TATGCA | 1.18
49 | AAACTG | 1.09
50 | GCCCCC | 1.06
51 | GTTATG | 1.14
52 | ATAGGT | 1.08
53 | CGTTTG | 1.01
54 | TTCTGA | 1.23
55 | ATTCAA | 1.32
56 | GAATAT | 1.07
57 | TTTAAC | 1.12
58 | CAATTC | 1.37
59 | GGGCTC | 1.18

Target: ELF4 (UniProt Q99607)
Experiment: as above
Conditions: 10 mM Tris-HCl pH 7.5, 50 mM NaCl, 1 mM DTT, 4% glycerol, room temperature, 30 min; GST-TFs on glutathione beads, 16-mer random dsDNA library, 0.1% …; high values mean tight binding; double strand, one strand shown; scale: fold enrichment (6-mer frequency, TF over GST control)

Row | Sequence | binding signal
60 | TATGTG | 1.13
61 | CTTCGA | 1.4
62 | GACATT | 1.14
63 | CGCTAA | 0.943
64 | CCTGGC | 0.901
65 | CAAGCT | 1.02
66 | ATCGTT | 1.04
67 | TGGCTG | 0.971
68 | AGCTAG | 1.05
69 | TATGCA | 1.27
70 | AAACTG | 1.1
71 | GCCCCC | 1.11
72 | GTTATG | 1.1
73 | CGTTTG | 0.944
74 | TTCTGA | 1.45

Target: T2, ETV2 (UniProt O00321)
T2 sequence: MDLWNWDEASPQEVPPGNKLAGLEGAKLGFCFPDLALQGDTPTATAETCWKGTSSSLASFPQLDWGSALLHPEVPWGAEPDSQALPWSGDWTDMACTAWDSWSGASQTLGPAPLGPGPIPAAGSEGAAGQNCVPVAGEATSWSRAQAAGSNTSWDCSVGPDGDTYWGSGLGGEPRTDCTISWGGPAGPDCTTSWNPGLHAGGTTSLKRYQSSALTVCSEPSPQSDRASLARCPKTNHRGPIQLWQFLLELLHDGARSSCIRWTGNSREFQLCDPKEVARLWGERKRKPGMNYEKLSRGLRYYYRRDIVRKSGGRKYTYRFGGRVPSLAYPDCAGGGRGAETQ
Experiment: as above
Conditions: 10 mM Tris-HCl pH 7.5, 50 mM NaCl, 1 mM DTT, 4% glycerol, room temperature, 30 min; GST-TFs on glutathione beads, 16-mer random dsDNA library, 0.1% …; high values mean tight binding; double strand, one strand shown; scale: fold enrichment (6-mer frequency, TF over GST control)

Row | Sequence | binding signal
75 | AACTTT | 1.3
76 | CATTTT | 1.35
77 | AACTAC | 1.42
78 | TAGATG | 1.37
79 | AAAGTT | 0.991
80 | CATTGT | 1.11
81 | AAAGCA | 1.11
82 | CCTTAT | 1.39
83 | TATAAT | 1.3
84 | ACGCCT | 1.29
85 | TGCTCG | 1.21
86 | GCTTCC | 3.44
87 | AACTGG | 1.31
88 | GAAACT | 1.12
89 | TGTTTA | 1.04
90 | ACTACG | 1.33
91 | AGTAAT | 1.24
92 | TTGACT | 1.27
93 | CTGATT | 1.21
94 | ATAGGT | 1.11
95 | ATTCAA | 1.38
96 | GAATAT | 0.97
97 | TTTAAC | 1.24
98 | CAATTC | 1.39
99 | GGGCTC | 0.912
